Results deposited as PubChem BioAssay AID1159590 (NIAID, 2016).
In all, the deposit lists 756 reagents; this is a part drawn at random. In the full data, 128 (17%) got an active call. 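Calls are two-sided: both reduced and increased p65 nuclear entry count as active.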 Reagents against one gene are numbered here. No sequences are given here. Not stated in the record: the amount of reagent.

Purpose: 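Effect of gene knock-down on p65 moving into nuclei after TLR2 stimulation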
Cells: mouse RAW264.7 macrophage reporter cells expressing GFP-p65 and a Tnf promoter-mCherry
Knock-down reagent: single siRNA against mouse genes
Duration: 48 to 72 hours after siRNA transfection, then 40 minutes of ligand
Conditions: Pam3CSK4 (TLR2/1 agonist) for 40 minutes before fixation; dose not given
Measurement: 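GFP-p65 nuclear to cytoplasmic intensity ratio from imaging, normalised per plate by median and MAD, given as robust z against negative controls, mean of replicates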
Scale: p65 nuclear entry z-score: higher = more p65 moved into nuclei than in negative-control wells
Hit rule: In these data the active calls have p65 nuclear entry z-score, replicate mean at about -1.5 or lower, or at about 1.5 or higher
Meaning of the calls: active = strong change, up or down; inactive = little change

p65 nuclear entry z-score, replicate mean	outcome	target	reagent
-0.348	inactive	Tab1	1
-0.496	inactive	Tab1	2
-0.258	inactive	Tab1	3
-0.527	inactive	Tab1	4
-0.902	inactive	Tab1	5
0.0371	inactive	Tab1	6
-1.62	active	Ticam1	1
0.237	inactive	Ticam1	2
-0.488	inactive	Ticam1	3
-0.093	inactive	Ticam1	4
1.25	inactive	Ticam1	5
0.176	inactive	Ticam1	6
1.07	inactive	Ptk2b	1
1.28	inactive	Ptk2b	2
-0.202	inactive	Ptk2b	3
0.455	inactive	Ptk2b	4
0.218	inactive	Ptk2b	5
-0.823	inactive	Ptk2b	6
-0.27	inactive	Ripk3	1
0.784	inactive	Ripk3	2
-0.465	inactive	Ripk3	3
-0.24	inactive	Ripk3	4
-0.572	inactive	Ripk3	5
2.87	active	Ripk3	6
-0.0169	inactive	Irf5	1
-0.791	inactive	Irf5	2
-0.216	inactive	Irf5	3
0.163	inactive	Irf5	4
-0.767	inactive	Irf5	5
-2.73	active	Irf5	6
-0.943	inactive	Jun	1
-2.32	active	Jun	2
-0.421	inactive	Jun	3
-1.29	inactive	Jun	4
0.31	inactive	Jun	5
-0.127	inactive	Jun	6
0.62	inactive	Il1b	1
0.26	inactive	Il1b	2
0.109	inactive	Il1b	3
1.47	inactive	Il1b	4
-0.688	inactive	Il1b	5
-1.3	inactive	Il1b	6
-0.81	inactive	Ep300	1
-0.766	inactive	Ep300	2
-1.69	active	Ep300	3
2.07	active	Ep300	4
-0.101	inactive	Ep300	5
-0.469	inactive	Ep300	6

Records above marked active, once more:
p65 nuclear entry z-score, replicate mean	outcome	target	reagent
-1.62	active	Ticam1	1
2.87	active	Ripk3	6
-2.73	active	Irf5	6
-2.32	active	Jun	2
-1.69	active	Ep300	3
2.07	active	Ep300	4
